From ChEMBL document CHEMBL3988442, “University of Dundee, Small-Polar-MMV Screening Library” (2021).

T. brucei: 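Whole-parasite assay of Trypanosoma brucei over 72 hours; the read-out is not stated. Concentration: 30 µM. The record gives no direction; compounds that gave an IC50 in retests scored well above the rest, so higher reads as stronger inhibition. Values scatter widely below zero; nearly all retest evidence comes from the higher of the two concentrations used. Size under these conditions: about 64,000 compounds, about 940 of them at 50% or above in at least one test.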
Toxoplasma: 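Assay of Toxoplasma gondii numbers, read through their beta-galactosidase reporter with a colour substrate. Concentration: 10 µM. The record gives no direction; the compounds picked for IC50 retests had high values, so higher reads as fewer parasites. About 67,000 compounds were tested under these conditions; 0.38% (about 260) showed 50% or more at least once.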

Values are the deposited “Percent Effect”, in %. How 0% and 100% were set is not recorded. Most values in the screen are low, and negative values occur. The compounds are a random part of those screened. A dash means the value is not listed here; it may have been measured.

Compound	T. brucei	Toxoplasma
CNC(=O)c1cn[nH]c1C1(C)CCCN(Cc2ccccc2OC)C1 (stereo unspecified)	-102.6%	-4.074%
Cc1nc(C)n(CC2CN(Cc3nc4ccccc4s3)CCO2)n1 (stereo unspecified)	-14.18%	7.773%
O=C(c1ccc(-n2ccnn2)cc1)N(CC1CC1)c1cccnc1	-17.71%	10.32%
Cc1nc(COCC2CN(C(=O)N(C)C)Cc3nccn3C2)cs1.O=C(O)C(F)(F)F (stereo unspecified)	-49.05%	13.79%
O=C(O)C(F)(F)F.[H][C@@]12COC[C@]1([H])[C@H](NC(=O)C1CCC1)CN2Cc1cccs1	-104.9%	-4.063%
CC(C(=O)NCCCn1ccnc1)n1cc(Br)cn1 (stereo unspecified)	-3.56%	16.55%
COCCn1cnc2c(F)cc(Br)cc2c1=O	-0.1372%	-7.26%
CC(C)CNC(=O)Cn1ccc2ccccc21	-16.15%	-28.53%
CN1CCCc2cc(CNC(=O)c3ccc(NC4CC4)nc3)ccc21	26.25%	3.656%
O=C(O)C(F)(F)F.O=C1CCCN1Cc1ncn2c1CN(C(=O)N1CCCC1)CCC2	-52.13%	15.45%
COc1cccc(-n2nnc(C(=O)N3CCN(C(C)=O)CC3)c2C)c1	-11.77%	17.76%
O=C(CN1CCCC1Cn1cccn1)NC1CCOCC1 (stereo unspecified)	2.039%	9.81%
CCN(CC)CCSc1ncnc2[nH]ncc12	-13.32%	-4.025%
COc1ccc(-n2cc(CCO)cn2)cc1C	14.04%	-9.787%
NC(=O)c1c[nH]nc1NC(=O)c1ccc(Cl)cc1	3.697%	7.935%
Cn1cnc(-c2nc(C(=O)NCCN3CCOCC3)c3ccccn23)c1	-44.24%	-16.51%
N#Cc1cnc2cc(F)cc(F)c2c1NC1CCN(CC(N)=O)CC1	-21.05%	6.713%
COCCCNC(=O)Cc1cc(-c2ccccc2)on1	-22.49%	3.944%
O=C(C1CC1)N1CCC2(CC1)CNCc1ccccc12	-19.55%	2.859%
CCc1nc2c(c(NCc3nc(-c4cccnc4)no3)n1)CCNCC2	-4.259%	6.628%
Cc1cnn(CCNCc2csc(-c3ccco3)n2)c1	4.183%	0.1691%
Cc1cnn(C2CCCN(C(=O)c3ccc(NC4CC4)nc3)C2)c1 (stereo unspecified)	1.212%	5.893%
Cc1nc(CNC(=O)NC2CCN(c3ncccc3Cl)C2)no1 (stereo unspecified)	-25.78%	-39.51%
CC(=O)Nc1ccc(Cl)c(C(=O)N(C)C(C)c2ccon2)c1 (stereo unspecified)	-24.02%	-6.156%
CN(Cc1cc2n(n1)CCN(C(=O)c1cccnc1)C2)Cc1nccs1	-10.07%	-9.893%
CN(C(=O)c1ccc(Cl)c(S(C)(=O)=O)c1)c1ccccc1	-24.82%	-5.352%
Cc1noc(C)c1C(=O)NCc1ccc(N2CCOCC2)nc1	14.78%	-0.9705%
Brc1cnc(NCCCOCC2CCOCC2)nc1	-36.06%	-6.798%
COCCCN1Cc2cccc(NC(=O)c3cc(F)cc(F)c3)c2C1	34.67%	22.09%
O=C(NCC1CCN(c2ccncc2)CC1)C(O)c1ccccc1 (stereo unspecified)	-26.95%	-22.17%
CCC(CC)(CNC(=O)NC1CCCC1(C)C)S(C)(=O)=O (stereo unspecified)	-0.6309%	-5.631%
CCOCC(O)CN1CCN(C(=O)c2cc(C)ccc2OC)CC1 (stereo unspecified)	-	-1.222%
CC(C)(C)OC(=O)N1CC(CC(=O)NCc2ccnc(C3CC3)c2)C1	-24.33%	-3.612%
[H][C@@]12C[C@H](C)O[C@]1([H])CCN(C(=O)CCc1ccccc1)C2	-111.9%	-19.49%
[H][C@]12CC[C@]([H])(CN(C)C1)N(C(=O)c1ccc(Cl)c(C)c1)C2	-30.01%	10.33%
CCn1nccc1CNC(=O)C1CCCC1	-36.85%	1.591%
Cn1ccnc1-c1ccc(NCC2COc3ccccc3O2)nn1 (stereo unspecified)	-19.17%	-4.981%
O=C(O)C(F)(F)F.O=C(O)C(F)(F)F.[H][C@@]12C[C@@H](OCC)CN1CCN(Cc1ccc(C)o1)C2	5.208%	-1.808%
CC(C)C(=O)N1CCN(CCOc2cccc(C#N)c2)CC1	-15.56%	3.721%
CC(C)CC(=O)N(C)CC(=O)Nc1ccc(Br)cn1	-6.533%	0.1078%
COCCN1CCCC(Cc2cnc(-c3c(C)nn(C)c3C)cn2)C1 (stereo unspecified)	-	7.171%
Cc1cnn(C2CCCN(C(=O)c3ccc(C(N)=O)cn3)C2)c1 (stereo unspecified)	-24.68%	-4.964%
COc1ccc(C(=O)N2CCC3(CC2)c2ccccc2[C@@H](N)[C@@H]3O)cc1	13.33%	1.796%
O=C(O)C(F)(F)F.[H][C@@]12CN(C(=O)c3cccc(C)n3)C[C@]1([H])[C@@H]2CC(=O)NC(C)C	-6.207%	-26.97%
Cc1cc(N(C)C)nc(C2(C)CCCN2C(=O)c2cncnc2C)n1 (stereo unspecified)	12.13%	18.96%
O=C(NCCC(=O)N1CCCC1)C(OC1CCCC1)c1ccccc1 (stereo unspecified)	-1.955%	1.731%
Cn1ccnc1C(NCc1ccc(Br)cc1)c1ccccc1 (stereo unspecified)	-	12.72%
Cc1csc(C2CCCCN2C(=O)c2cc(C(C)C)[nH]n2)n1 (stereo unspecified)	-	9.599%
O=C(NCCCn1ccnc1)N1CCN(c2cccs2)CC1	5.22%	-4.894%
O=C1N(CCc2ccccc2)CCCC1(O)CNCc1ccc(F)cc1 (stereo unspecified)	-34.74%	4.348%
c1cc2c(cc1Cn1cc(C3CCOC3)nn1)OCO2 (stereo unspecified)	-15.66%	13.54%
COc1ccc(Cl)cc1NC(=O)N(C)CC(O)COCCOC(C)C (stereo unspecified)	-16.72%	-2.31%
Cc1cc2c(=O)n3c(nc2s1)CCN(Cc1cnc(C)n1C)CC3.Cl	0.108%	-22.25%
N#Cc1ccc(CN2CCN(C(=O)c3cc(C4CC4)[nH]n3)CC2)cc1	34.53%	2.8%
CS(=O)(=O)c1ccc(C(=O)NCc2nc3cc(F)ccc3[nH]2)cc1	-15.59%	-11.06%
CCCc1n[nH]c(C2CN(C(=O)CCn3ccccc3=O)CCO2)n1 (stereo unspecified)	12.43%	-21.79%
O=C(C1CC1)N(CCc1ccccc1)C1CCOC1 (stereo unspecified)	-48.69%	1.578%
[H][C@]12C[C@H](NC(=O)c3cscn3)[C@@]1([H])CN(S(=O)(=O)c1ccc(C)cc1)C2	-16.8%	-6.464%
CN(CCc1nc2ccccc2c(=O)[nH]1)CCC(F)(F)F	-12.95%	3.718%
O=C(CCc1ccc(Br)cc1)NCCc1nnc[nH]1	-1.18%	2.596%
O=C(NCCN1CCc2ccccc21)c1cc(-c2ccc(O)cc2)n[nH]1	-7.268%	-17.49%
CCCc1nc(CN(C)CCOc2ccccc2)cs1	-9.561%	-15.59%
CC(C)c1nnc2n1CCN(C(=O)c1ccc(OCC3CC3)cc1)C2	14.01%	2.432%
Cc1cc(CNc2cncc(C(=O)N(C)C)n2)c2[nH]c(C)c(C)c2c1	-15.59%	7.919%
Cc1nc(-c2ccnc(N3CCNCC3)n2)no1.Cl.Cl	-	-4.17%
Cc1cccc(C(=O)N2CCCn3cnc(CN4CCCC4=O)c3C2)n1	-50.26%	-0.9655%
COc1ccccc1OCCNC(=O)CN1CCc2cncnc2C1	16.66%	13.33%